# Data from the supplement of paper PMC6143611.
# Structures can show the parent of a compound that is named as a salt. ± gives the uncertainty stated by the source. The list shows a part of the results. Plates or batches differ in their baseline, so values are only roughly comparable.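 Larvae carried a heat-shock-induced fluorescent stripe in rod outer segments, set at 6 dpf; the shedding distance runs from this stripe to the outer segment tip, measured in confocal stacks, about three fish per compound. The controls got 0.2% DMSO vehicle, and the paper flagged compounds with at least a 20% change against the same-week control and p < 0.001 (Dunnett test on mixed-effects models).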
# Columns and labels:
# [1] = system: Danio rerio larva rod photoreceptor outer segment; experiment: rod outer segment growth distance Dg, difference from same-week DMSO control mean; higher = more outer segment growth; details: 20 µM; treatment time: 4 days (6-10 dpf)
# [2] = system: Danio rerio larva rod photoreceptor outer segment; experiment: rod outer segment shedding distance Ds, difference from same-week DMSO control mean; higher = less outer segment shedding; details: 20 µM; treatment time: 4 days (6-10 dpf)
Structure (SMILES),rod outer segment growth distance Dg [1],rod outer segment shedding distance Ds [2]
C[C@H]1O[C@@H](Oc2c(-c3cc(O)c(O)c(O)c3)oc3cc(O)cc(O)c3c2=O)[C@@H](O)[C@@H](O)[C@@H]1O [Myricitrin],0.14 ± 0.29 um,-0.07 ± 0.3 um
Nc1ncnc2c1ncn2[C@@H]1O[C@H](CO)[C@@H](O)[C@H]1O [Adenosine],-0.44 ± 0.26 um,-0.19 ± 0.16 um
C=CC[C@@H]1/C=C(\C)C[C@H](C)C[C@H](OC)[C@H]2O[C@@](O)(C(=O)C(=O)N3CCCC[C@H]3C(=O)O[C@H](/C(C)=C/[C@@H]3CC[C@@H](O)[C@H](OC)C3)[C@H](C)[C@@H](O)CC1=O)[C@H](C)C[C@@H]2OC [Tacrolimus (FK506)],-0.29 ± 0.15 um,-0.07 ± 0.13 um
CN(C[C@@H]1COCCO1)S(=O)(=O)Nc1ccc2ccc3ncc(-c4cnn(C)c4)cc3c(=O)c2c1,0.13 ± 0.15 um,0.38 ± 0.13 um
CC(C)C[C@@H](C=O)NC(=O)[C@H](CC(C)C)NC(=O)[C@H](CC(C)C)NC(=O)OCc1ccccc1,-0.46 ± 0.19 um,0.25 ± 0.097 um
CC(=O)O[C@H]1C[C@@H]2CC[C@@H]3[C@H](CC[C@@]4(C)[C@H]3C[C@H]([N+]3(C)CCCCC3)[C@@H]4OC(C)=O)[C@@]2(C)C[C@@H]1N1CCCCC1 [Vecuronium Bromide],0.26 ± 0.16 um,-0.22 ± 0.17 um
O=C(NC(NC(=S)Nc1ccc(F)c([N+](=O)[O-])c1)C(Cl)(Cl)Cl)C(c1ccccc1)c1ccccc1 (configuration not stated),-1.28 ± 0.19 um,-1.47 ± 0.26 um
CC(C)[C@H](O)C(=O)N[C@@H](C)C(=O)N[C@@H]1C(=O)N(C)CCc2ccccc21,0.44 ± 0.19 um,0.24 ± 0.16 um
CCOC(=O)[C@H](CCc1ccccc1)N[C@H]1CS[C@H](c2cccs2)CN(CC(=O)O)C1=O [Temocapril HCl],0.53 ± 0.21 um,0.1 ± 0.21 um
COc1ccc2c(c1)c(CC(=O)OCC(=O)O)c(C)n2C(=O)c1ccc(Cl)cc1 [Acemetacin],-1.52 ± 0.27 um,-0.68 ± 0.17 um
O=C(/C=C/c1cccc(S(=O)(=O)Nc2ccccc2)c1)NO [Belinostat (PXD101)],-0.88 ± 0.12 um,0.38 ± 0.19 um
NC(=O)[C@@H](CCC(F)(F)F)N(Cc1ccc(-c2ncon2)cc1F)S(=O)(=O)c1ccc(Cl)cc1,-0.51 ± 0.35 um,-1.4 ± 0.43 um
Nc1ccc(S(N)(=O)=O)cc1 [Sulfanilamide],-1.1 ± 0.18 um,0.11 ± 0.17 um
Cc1nc(=O)c2cc(CN(C)c3ccc(C(=O)N[C@@H](CCC(=O)O)C(=O)O)s3)ccc2[nH]1 [Raltitrexed],0.15 ± 0.17 um,-1.91 ± 0.26 um
CC1(C)[C@@H](O[C@H]2O[C@H](C(=O)O)[C@@H](O)[C@H](O)[C@H]2O[C@@H]2O[C@H](C(=O)O)[C@@H](O)[C@H](O)[C@H]2O)CC[C@]2(C)[C@H]3C(=O)C=C4[C@@H]5C[C@@](C)(C(=O)O)CC[C@]5(C)CC[C@@]4(C)[C@]3(C)CC[C@@H]12 [Glycyrrhizic Acid],0.41 ± 0.3 um,0.76 ± 0.23 um
C=C1c2cccc(O)c2C(O)=C2C(=O)[C@]3(O)C(O)=C(C(N)=O)C(=O)[C@@H](N(C)C)[C@@H]3[C@@H](O)[C@H]12 [Methacycline HCl],0.22 ± 0.19 um,-0.1 ± 0.18 um
CCCCCCNC(=O)n1cc(F)c(=O)[nH]c1=O [Carmofur],-0.34 ± 0.17 um,-0.86 ± 0.21 um
Cc1cccc(C#Cc2ccccc2)n1,-2.69 ± 0.6 um,-1.15 ± 0.31 um
CN1CCN(c2nc(C3=C(c4c[nH]c5ccccc45)C(=O)NC3=O)c3ccccc3n2)CC1 [Sotrastaurin],-0.8 ± 0.17 um,-0.21 ± 0.14 um
CC(S)C(=O)NCC(=O)O (configuration not stated) [Tiopronin],1.04 ± 0.23 um,-0.43 ± 0.3 um
O=C(O)CC[C@H]1CC[C@@](c2cc(F)ccc2F)(S(=O)(=O)c2ccc(Cl)cc2)CC1,0.12 ± 0.16 um,-0.45 ± 0.11 um
COc1cc(Nc2ncc(F)c(Nc3ccc4c(n3)NC(=O)C(C)(C)O4)n2)cc(OC)c1OC,-0.26 ± 0.27 um,-0.19 ± 0.23 um

Structure (SMILES),rod outer segment growth distance Dg [1],rod outer segment shedding distance Ds [2]
Cc1cc2c(cc1CC(=O)c1sccc1S(=O)(=O)Nc1onc(C)c1Cl)OCO2 [Sitaxentan sodium],-0.03 ± 0.17 um,0.18 ± 0.16 um
O=C(O)Cc1ccccc1Nc1c(Cl)cccc1Cl [Diclofenac Potassium],0.93 ± 0.18 um,-0.22 ± 0.15 um
CCN(CCO)CCCOc1ccc2c(Nc3cc(CC(=O)Nc4cccc(F)c4)[nH]n3)ncnc2c1 [Barasertib (AZD1152-HQPA)],-0.36 ± 0.28 um,-0.08 ± 0.21 um
Cc1ccccc1C(=O)Nc1ccc(C(=O)N2CCCC(O)c3cc(Cl)ccc32)c(C)c1 (configuration not stated) [Tolvaptan],-0.59 ± 0.22 um,0.06 ± 0.15 um
CCOC(=O)c1ncn2c1CN(C)C(=O)c1cc(F)ccc1-2 [Flumazenil],0.12 ± 0.29 um,0.47 ± 0.21 um
CCCCCCOC(=O)NC(=N)c1ccc(NCc2nc3cc(C(=O)N(CCC(=O)OCC)c4ccccn4)ccc3n2C)cc1 [Dabigatran Etexilate],-0.45 ± 0.3 um,0.66 ± 0.35 um
CCCC(CCC)C(=O)O [Valproic acid sodium salt (Sodium valproate)],-0.6 ± 0.3 um,-0.49 ± 0.32 um
"CC[C@H](Nc1ncnc2[nH]cnc12)c1nc2cccc(F)c2c(=O)n1-c1ccccc1 [CAL-101 (Idelalisib, GS-1101)]",0.12 ± 0.2 um,-0.19 ± 0.29 um
CC1(C)O[C@@H]2C[C@H]3[C@@H]4C[C@H](F)C5=CC(=O)C=C[C@]5(C)[C@@]4(F)[C@@H](O)C[C@]3(C)[C@]2(C(=O)CO)O1 [Fluocinolone Acetonide],0 ± 0.3 um,-0.14 ± 0.32 um
C[C@]12CC[C@@H]3c4ccc(O)cc4CC[C@H]3[C@@H]1CCC2=O [Estrone],-1.05 ± 0.28 um,0 ± 0.28 um
Cn1nc(C(C)(C)C)cc1C(=O)N[C@@H](Cc1cccc(Cl)c1)C(=O)NCC#N [Cathepsin Inhibitor 1],0.96 ± 0.16 um,-0.28 ± 0.13 um
Fc1cc(-c2cccc3ncc(-c4cnn(C5CCNCC5)c4)nc23)cc(F)c1CN1CCOCC1,-1.16 ± 0.15 um,0.22 ± 0.13 um
COc1ccc2[nH]c([S+]([O-])Cc3ncc(C)c(OC)c3C)nc2c1 (configuration not stated) [Omeprazole],-0.41 ± 0.2 um,-0.74 ± 0.26 um
COc1c(O)cc2c(c1O)[C@@H]1O[C@H](CO)[C@@H](O)[C@H](O)[C@H]1OC2=O [Bergenin],-0.4 ± 0.34 um,0.06 ± 0.3 um
CS(=O)(=O)c1ccc([C@@H](O)[C@@H](CO)NC(=O)C(Cl)Cl)cc1 [Thiamphenicol],-0.08 ± 0.28 um,-0.1 ± 0.16 um
C=C1[C@H](CO)[C@@H](O)C[C@@H]1n1cnc2c(=O)[nH]c(N)nc21 [Entecavir Hydrate],-0.24 ± 0.33 um,0.2 ± 0.29 um
CCOc1ccc(NC(C)=O)cc1 [Phenacetin],0.97 ± 0.29 um,-0.63 ± 0.16 um
COc1ccc(Cn2ccc3ccc(C(=O)NO)cc32)cc1,0.81 ± 0.48 um,-1.55 ± 0.37 um
CC(=O)[C@H]1CC[C@H]2[C@@H]3CC=C4C[C@@H](O)CC[C@]4(C)[C@H]3CC[C@]12C [Pregnenolone],-1.1 ± 0.24 um,0.03 ± 0.28 um
Cc1nccn1CC1CCc2c(c3ccccc3n2C)C1=O (configuration not stated) [Ondansetron HCl],-1.23 ± 0.21 um,-0.89 ± 0.24 um
NCCCCCNCC12CC3CC(CC(C3)C1)C2 [IEM 1754 dihydrobroMide],-0.27 ± 0.19 um,0.1 ± 0.12 um
C#Cc1cccc(Nc2ncnc3cc(OCCOC)c(OCCO)cc23)c1,0.57 ± 0.24 um,-0.15 ± 0.35 um

Structure (SMILES),rod outer segment growth distance Dg [1],rod outer segment shedding distance Ds [2]
CC[C@@]1(O)C(=O)OCc2c1cc1n(c2=O)Cc2cc3c(CN(C)C)c(O)ccc3nc2-1 [Topotecan HCl],-0.1 ± 0.22 um,0.39 ± 0.26 um
c1ccc(NCc2ccc(CNc3ccccn3)cc2)nc1,-1.44 ± 0.2 um,-0.46 ± 0.14 um
COc1cc(C2Oc3cc([C@H]4Oc5cc(O)cc(O)c5C(=O)[C@@H]4O)ccc3OC2CO)ccc1O (some centres not stated) [Silibinin],0.27 ± 0.23 um,-0.34 ± 0.26 um
Cc1noc(NS(=O)(=O)c2ccc(N)cc2)c1C [Sulfisoxazole],0.08 ± 0.24 um,-1.57 ± 0.28 um
"Cc1c(C(=O)Nc2ccc(N3C[C@@H](C)O[C@@H](C)C3)nc2)cccc1-c1ccc(OC(F)(F)F)cc1 [LDE225 (NVP-LDE225,Erismodegib)]",-1.68 ± 0.62 um,-0.42 ± 0.65 um
COc1ccc(-c2coc3cc(O)ccc3c2=O)cc1 [Formononetin],0.02 ± 0.29 um,0.33 ± 0.26 um
CN1CCN(c2cccc(Nc3nc4c(-c5ccc(S(C)(=O)=O)cc5)cccn4n3)c2)CC1,-1.07 ± 0.24 um,0.18 ± 0.15 um
CN(C)Cc1cccc(N=C(c2ccccc2)c2c(O)[nH]c3cc(C(=O)N(C)C)ccc23)c1,-1.86 ± 0.23 um,1.05 ± 0.19 um
Oc1nc(-c2ccc(C(F)(F)F)cc2)nc2c1CSCC2,-1.51 ± 0.14 um,0.7 ± 0.15 um
CCC1(c2ccccc2)C(=O)NCNC1=O [Primidone],0.5 ± 0.3 um,1.06 ± 0.26 um
CCOc1nc2cccc(C(=O)OCc3oc(=O)oc3C)c2n1Cc1ccc(-c2ccccc2-c2noc(=O)[nH]2)cc1 [Azilsartan Medoxomil],1.36 ± 0.15 um,-0.09 ± 0.13 um
Cc1ccc(=O)n(-c2ccccc2)c1 [Pirfenidone],-1.37 ± 0.15 um,-0.11 ± 0.12 um
COc1ccc2cc([C@H](C)C(=O)O)ccc2c1 [Naproxen],-0.5 ± 0.25 um,1.31 ± 0.22 um
CCOC(=O)[C@H](CCc1ccccc1)N[C@@H](C)C(=O)N1C(=O)N(C)C[C@H]1C(=O)O [Imidapril HCl],0.42 ± 0.23 um,0.29 ± 0.28 um
C[C@@](Cc1ccc(O)c(O)c1)(NN)C(=O)O [Carbidopa],0.5 ± 0.23 um,0.28 ± 0.29 um
O=C1CCc2cc(OCCCCc3nnnn3C3CCCCC3)ccc2N1 [Cilostazol],-0.79 ± 0.15 um,-0.43 ± 0.2 um
CC(C)OC(=O)C1=CN(C(=O)c2ccc(F)c(F)c2)CC(C)(C)c2c1[nH]c1ccccc21,-0.21 ± 0.15 um,-0.06 ± 0.12 um
CNC(=O)c1ccc(C)c(-n2c(C)cc(OCc3ccc(F)cc3F)c(Br)c2=O)c1,-0.34 ± 0.16 um,-0.19 ± 0.12 um
COc1ccnc2[nH]cc(C(=O)C(=O)N3CCN(C(=O)c4ccccc4)C[C@H]3C)c12,-0.26 ± 0.17 um,-0.55 ± 0.13 um
Cc1c(NC(=O)OC[C@@H]2COCCN2)cn2ncnc(Nc3ccc4c(cnn4Cc4cccc(F)c4)c3)c12,-0.93 ± 0.18 um,-1.36 ± 0.29 um
COc1ccc([C@@H]2CC(=O)c3c(O)cc(O)cc3O2)cc1O [Hesperetin],-0.55 ± 0.25 um,0.29 ± 0.27 um
Oc1ccc2ccccc2c1SSc1c(O)ccc2ccccc12,-1.3 ± 0.16 um,-0.47 ± 0.12 um

# Shown as tab-separated lines: part of the list above.
Structure (SMILES)	rod outer segment growth distance Dg [1]	rod outer segment shedding distance Ds [2]
COc1cc(C2Oc3cc([C@H]4Oc5cc(O)cc(O)c5C(=O)[C@@H]4O)ccc3OC2CO)ccc1O (some centres not stated) [Silibinin]	0.27 ± 0.23 um	-0.34 ± 0.26 um
Cc1noc(NS(=O)(=O)c2ccc(N)cc2)c1C [Sulfisoxazole]	0.08 ± 0.24 um	-1.57 ± 0.28 um
Cc1c(C(=O)Nc2ccc(N3C[C@@H](C)O[C@@H](C)C3)nc2)cccc1-c1ccc(OC(F)(F)F)cc1 [LDE225 (NVP-LDE225,Erismodegib)]	-1.68 ± 0.62 um	-0.42 ± 0.65 um
COc1ccc(-c2coc3cc(O)ccc3c2=O)cc1 [Formononetin]	0.02 ± 0.29 um	0.33 ± 0.26 um
CN1CCN(c2cccc(Nc3nc4c(-c5ccc(S(C)(=O)=O)cc5)cccn4n3)c2)CC1	-1.07 ± 0.24 um	0.18 ± 0.15 um
CN(C)Cc1cccc(N=C(c2ccccc2)c2c(O)[nH]c3cc(C(=O)N(C)C)ccc23)c1	-1.86 ± 0.23 um	1.05 ± 0.19 um
Oc1nc(-c2ccc(C(F)(F)F)cc2)nc2c1CSCC2	-1.51 ± 0.14 um	0.7 ± 0.15 um
CCC1(c2ccccc2)C(=O)NCNC1=O [Primidone]	0.5 ± 0.3 um	1.06 ± 0.26 um
CCOc1nc2cccc(C(=O)OCc3oc(=O)oc3C)c2n1Cc1ccc(-c2ccccc2-c2noc(=O)[nH]2)cc1 [Azilsartan Medoxomil]	1.36 ± 0.15 um	-0.09 ± 0.13 um
Cc1ccc(=O)n(-c2ccccc2)c1 [Pirfenidone]	-1.37 ± 0.15 um	-0.11 ± 0.12 um
COc1ccc2cc([C@H](C)C(=O)O)ccc2c1 [Naproxen]	-0.5 ± 0.25 um	1.31 ± 0.22 um
